Assay results: patent US20130053407A1, “PYRROLO [3,2-D] PYRIMIDIN-3-YL DERIVATIVES USED AS ACTIVATORS OF AMPK” (GlaxoSmithKline LLC, priority 2010, published 2013)
Some entries share one result that the patent states for a list of compounds.

What follows are compounds tested on Human recombinant AMPK (assay: AMPK Enzymatic Assay (Z'Lyte FRET)). Details: AMPK activation, ATP 100 μM, peptide 2 μM, means of at least 2 independent experiments.
Assay type: biochemical
Experimental: Human recombinant AMPK (Invitrogen #PV4673 & #PV4675) is used in a FRET assay format (Z'Lyte—Invitrogen). Assay conditions are as follow: ATP 100 μM, peptide (Invitrogen #PR8650) 2 μM, 1% final DMSO in Z'Lyte kinase buffer. Reaction is initiated by addition of 0.2-0.8 ng of AMPK and incubated for 1-hour @ 30° C. A further 1-hour incubation @ 30° C. with the development reagent (Invitrogen #PR5194) is performed. FRET signal is then measured and converted to “% peptide phosphorylation” according to Z′Lyte given calculation procedure. Evaluation of compounds is carried out using concentration-response curves. Final data are expressed in “% activation” calculating the ratio of “% peptide phosphorylation” between compound-condition and basal-condition. […] All data are means of at least 2 independent experiments.

SMILES | pEC50
COc1cccc(-c2ccc(-n3c(Cl)cc4[nH]c(=O)n(-c5cccc(C(F)(F)F)c5F)c(=O)c43)cc2)c1O [Example 31, 6-Chloro-3-[2-fluoro-3-(trifluoromethyl)phenyl]-5-[2′-hydroxy-3′-(methyloxy)-4-biphenylyl]-1H-pyrrolo[3,2-d]pyrimidine-2,4(3H,5H)-dione] | greater than 5.5
COc1cccc(-c2ccc(-n3c(Cl)cc4[nH]c(=O)n(-c5c(C)cccc5C)c(=O)c43)cc2)c1O [Example 32, 6-Chloro-3-(2,6-dimethylphenyl)-5-[2′-hydroxy-3′-(methyloxy)-4-biphenylyl]-1H-pyrrolo[3,2-d]pyrimidine-2,4(3H,5H)-dione] | greater than 5.5
COc1cccc(-c2ccc(-n3c(Cl)cc4[nH]c(=O)n(-c5cccc(Cl)c5Cl)c(=O)c43)cc2)c1O [Example 33, 6-Chloro-3-(2,3-dichlorophenyl)-5-[2′-hydroxy-3′-(methyloxy)-4-biphenylyl]-1H-pyrrolo[3,2-d]pyrimidine-2,4(3H,5H)-dione] | greater than 5.5
COc1cccc(-c2ccc(-n3c(Cl)cc4[nH]c(=O)n(-c5cccc([N+](=O)[O-])c5C)c(=O)c43)cc2)c1O [Example 34, 6-Chloro-5-[2′-hydroxy-3′-(methyloxy)-4-biphenylyl]-3-(2-methyl-3-nitrophenyl)-1H-pyrrolo[3,2-d]pyrimidine-2,4(3H,5H)-dione] | greater than 5.5
COCCCn1c(=O)[nH]c2cc(Cl)n(-c3ccc(-c4cccc(OC)c4O)cc3)c2c1=O [Example 35, 6-Chloro-5-[2′-hydroxy-3′-(methyloxy)-4-biphenylyl]-3-[3-(methyloxy)propyl]-1H-pyrrolo[3,2-d]pyrimidine-2,4(3H,5H)-dione] | greater than 5.5
COc1ccc(-n2c(=O)[nH]c3cc(Cl)n(-c4ccc(-c5cccc(OC)c5O)cc4)c3c2=O)cc1OC [Example 36, 3-[3,4-Bis(methyloxy)phenyl]-6-chloro-5-[2′-hydroxy-3′-(methyloxy)-4-biphenylyl]-1H-pyrrolo[3,2-d]pyrimidine-2,4(3H,5H)-dione] | greater than 5.5
COc1cc(OC)cc(-n2c(=O)[nH]c3cc(Cl)n(-c4ccc(-c5cccc(OC)c5O)cc4)c3c2=O)c1 [Example 37, 3-[3,5-Bis(methyloxy)phenyl]-6-chloro-5-[2′-hydroxy-3′-(methyloxy)-4-biphenylyl]-1H-pyrrolo[3,2-d]pyrimidine-2,4(3H,5H)-dione] | greater than 5.5
COc1cccc(-c2ccc(-n3c(Cl)cc4[nH]c(=O)n(-c5ccc(C)cc5C)c(=O)c43)cc2)c1O [Example 38, 6-Chloro-3-(2,4-dimethylphenyl)-5-[2′-hydroxy-3′-(methyloxy)-4-biphenylyl]-1H-pyrrolo[3,2-d]pyrimidine-2,4(3H,5H)-dione] | greater than 5.5
COc1cccc(-c2ccc(-n3c(Cl)cc4[nH]c(=O)n(-c5ccc6ccccc6c5)c(=O)c43)cc2)c1O [Example 39, 6-Chloro-5-[2′-hydroxy-3′-(methyloxy)-4-biphenylyl]-3-(2-naphthalenyl)-1H-pyrrolo[3,2-d]pyrimidine-2,4(3H,5H)-dione] | greater than 5.5
COc1ccccc1-n1c(=O)[nH]c2cc(Cl)n(-c3ccc(-c4cccc(OC)c4O)cc3)c2c1=O [Example 40, 6-Chloro-5-[2′-hydroxy-3′-(methyloxy)-4-biphenylyl]-3-[2-(methyloxy)phenyl]-1H-pyrrolo[3,2-d]pyrimidine-2,4(3H,5H)-dione] | greater than 5.5
COc1cccc(-c2ccc(-n3c(Cl)cc4[nH]c(=O)n(-c5ccc(C)c(C(=O)O)c5)c(=O)c43)cc2)c1O [Example 41, 5-{6-Chloro-5-[2′-hydroxy-3′-(methyloxy)-4-biphenylyl]-2,4-dioxo-1,2,4,5-tetrahydro-3H-pyrrolo[3,2-d]pyrimidin-3-yl}-2-methylbenzoic acid] | greater than 5.5
COc1cccc(-c2ccc(-n3c(Cl)cc4[nH]c(=O)n(-c5cccc(C(=O)O)c5C)c(=O)c43)cc2)c1O [Example 42, 3-{6-Chloro-5-[2′-hydroxy-3′-(methyloxy)-4-biphenylyl]-2,4-dioxo-1,2,4,5-tetrahydro-3H-pyrrolo[3,2-d]pyrimidin-3-yl}-2-methylbenzoic acid] | greater than 5.5
COc1cc(C(=O)O)cc(-n2c(=O)[nH]c3cc(Cl)n(-c4ccc(-c5cccc(OC)c5O)cc4)c3c2=O)c1 [Example 43, 3-{6-Chloro-5-[2′-hydroxy-3′-(methyloxy)-4-biphenylyl]-2,4-dioxo-1,2,4,5-tetrahydro-3H-pyrrolo[3,2-d]pyrimidin-3-yl}-5-(methyloxy)benzoic acid] | greater than 5.5
COc1ccc(-n2c(=O)[nH]c3cc(Cl)n(-c4ccc(-c5cccc(OC)c5O)cc4)c3c2=O)c(C)c1 [Example 44, 6-Chloro-5-[2′-hydroxy-3′-(methyloxy)-4-biphenylyl]-3-[2-methyl-4-(methyloxy)phenyl]-1H-pyrrolo[3,2-d]pyrimidine-2,4(3H,5H)-dione] | greater than 5.5
COc1cccc(-c2ccc(-n3c(Cl)cc4[nH]c(=O)n(-c5cccc6ccccc56)c(=O)c43)cc2)c1O [Example 45, 6-Chloro-5-[2′-hydroxy-3′-(methyloxy)-4-biphenylyl]-3-(1-naphthalenyl)-1H-pyrrolo[3,2-d]pyrimidine-2,4(3H,5H)-dione] | greater than 5.5
COc1cccc(-c2ccc(-n3c(Cl)cc4[nH]c(=O)n(-c5cc(C)cc(C(=O)O)c5)c(=O)c43)cc2)c1O [Example 46, 3-{6-Chloro-5-[2′-hydroxy-3′-(methyloxy)-4-biphenylyl]-2,4-dioxo-1,2,4,5-tetrahydro-3H-pyrrolo[3,2-d]pyrimidin-3-yl}-5-methylbenzoic acid] | greater than 5.5
COc1cccc(-c2ccc(-n3ccc4[nH]c(=O)n(-c5cccc(C)c5C)c(=O)c43)cc2)c1O [Example 47, 3-(2,3-Dimethylphenyl)-5-[2′-hydroxy-3′-(methyloxy)-4-biphenylyl]-1H-pyrrolo[3,2-d]pyrimidine-2,4(3H,5H)-dione] | greater than 5.5
COc1cccc(-c2ccc(-n3ccc4[nH]c(=O)n(-c5cccc(Cl)c5C)c(=O)c43)cc2)c1O [Example 48, 3-(3-Chloro-2-methylphenyl)-5-[2′-hydroxy-3′-(methyloxy)-4-biphenylyl]-1H-pyrrolo[3,2-d]pyrimidine-2,4(3H,5H)-dione] | greater than 5.5
COc1cccc(-c2ccc(-n3ccc4[nH]c(=O)n(-c5ccccc5F)c(=O)c43)cc2)c1O [Example 49, 3-(2-Fluorophenyl)-5-[2′-hydroxy-3′-(methyloxy)-4-biphenylyl]-1H-pyrrolo[3,2-d]pyrimidine-2,4(3H,5H)-dione] | greater than 5.5
COc1cccc(-c2ccc(-n3ccc4[nH]c(=O)[nH]c(=O)c43)cc2)c1O [Example 51, 5-[2′-Hydroxy-3′-(methyloxy)-4-biphenylyl]-1H-pyrrolo[3,2-d]pyrimidine-2,4(3H,5H)-dione] | greater than 5.5
O=c1[nH]c(=O)c2c(ccn2-c2ccc(-c3cccc(F)c3O)cc2)[nH]1 [Example 52, 5-(3′-Fluoro-2′-hydroxy-4-biphenylyl)-1H-pyrrolo[3,2-d]pyrimidine-2,4(3H,5H)-dione] | greater than 5.5
O=c1[nH]c(=O)c2c(ccn2-c2ccc(-c3cc(F)ccc3O)cc2)[nH]1 [Example 53, 5-(5′-Fluoro-2′-hydroxy-4-biphenylyl)-1H-pyrrolo[3,2-d]pyrimidine-2,4(3H,5H)-dione] | greater than 5.5
O=c1[nH]c(=O)c2c(ccn2-c2ccc(-c3ccc(F)cc3O)cc2)[nH]1 [Example 54, 5-(4′-Fluoro-2′-hydroxy-4-biphenylyl)-1H-pyrrolo[3,2-d]pyrimidine-2,4(3H,5H)-dione] | greater than 5.5
O=c1[nH]c(=O)c2c(ccn2-c2ccc(-c3ccc(Cl)cc3O)cc2)[nH]1 [Example 55, 5-(4′-Chloro-2′-hydroxy-4-biphenylyl)-1H-pyrrolo[3,2-d]pyrimidine-2,4(3H,5H)-dione] | greater than 5.5
COc1cccc(-c2ccc(-n3c(Cl)cc4[nH]c(=O)[nH]c(=O)c43)cc2)c1O [Example 56, 6-Chloro-5-[2′-hydroxy-3′-(methyloxy)-4-biphenylyl]-1H-pyrrolo[3,2-d]pyrimidine-2,4(3H,5H)-dione] | greater than 5.5
O=c1[nH]c(=O)c2c(cc(Cl)n2-c2ccc(-c3ccccc3O)cc2)[nH]1 [Example 57, 6-Chloro-5-(2′-hydroxy-4-biphenylyl)-1H-pyrrolo[3,2-d]pyrimidine-2,4(3H,5H)-dione] | greater than 5.5
Cc1cccc(-c2ccc(-n3c(Cl)cc4[nH]c(=O)[nH]c(=O)c43)cc2)c1O [Example 58, 6-Chloro-5-(2′-hydroxy-3′-methyl-4-biphenylyl)-1H-pyrrolo[3,2-d]pyrimidine-2,4(3H,5H)-dione] | greater than 5.5
O=c1[nH]c(=O)c2c(ccn2-c2ccc(-c3c(O)cccc3F)cc2)[nH]1 [Example 59, 5-(2′-Fluoro-6′-hydroxy-4-biphenylyl)-1H-pyrrolo[3,2-d]pyrimidine-2,4(3H,5H)-dione] | greater than 5.5
CNC(=O)CCn1c(=O)[nH]c2cc(Cl)n(-c3ccc(-c4cccc(OC)c4O)cc3)c2c1=O [Example 60, 3-{6-Chloro-5-[2′-hydroxy-3′-(methyloxy)-4-biphenylyl]-2,4-dioxo-1,2,4,5-tetrahydro-3H-pyrrolo[3,2-d]pyrimidin-3-yl}-N-methylpropanamide] | greater than 5.5
